Test results from publication doi:10.1101/2024.07.03.601736.
These are yes or no findings as the source states them, for the method shown. Binding calls can cover weak binding; strength is not graded here. Tags and fused reporters may be left off the sequences shown.

Target: T1, Flag-tagged ADGRL1 (ADGRL1^Flag-HA) (UniProt O88917)
T1 sequence: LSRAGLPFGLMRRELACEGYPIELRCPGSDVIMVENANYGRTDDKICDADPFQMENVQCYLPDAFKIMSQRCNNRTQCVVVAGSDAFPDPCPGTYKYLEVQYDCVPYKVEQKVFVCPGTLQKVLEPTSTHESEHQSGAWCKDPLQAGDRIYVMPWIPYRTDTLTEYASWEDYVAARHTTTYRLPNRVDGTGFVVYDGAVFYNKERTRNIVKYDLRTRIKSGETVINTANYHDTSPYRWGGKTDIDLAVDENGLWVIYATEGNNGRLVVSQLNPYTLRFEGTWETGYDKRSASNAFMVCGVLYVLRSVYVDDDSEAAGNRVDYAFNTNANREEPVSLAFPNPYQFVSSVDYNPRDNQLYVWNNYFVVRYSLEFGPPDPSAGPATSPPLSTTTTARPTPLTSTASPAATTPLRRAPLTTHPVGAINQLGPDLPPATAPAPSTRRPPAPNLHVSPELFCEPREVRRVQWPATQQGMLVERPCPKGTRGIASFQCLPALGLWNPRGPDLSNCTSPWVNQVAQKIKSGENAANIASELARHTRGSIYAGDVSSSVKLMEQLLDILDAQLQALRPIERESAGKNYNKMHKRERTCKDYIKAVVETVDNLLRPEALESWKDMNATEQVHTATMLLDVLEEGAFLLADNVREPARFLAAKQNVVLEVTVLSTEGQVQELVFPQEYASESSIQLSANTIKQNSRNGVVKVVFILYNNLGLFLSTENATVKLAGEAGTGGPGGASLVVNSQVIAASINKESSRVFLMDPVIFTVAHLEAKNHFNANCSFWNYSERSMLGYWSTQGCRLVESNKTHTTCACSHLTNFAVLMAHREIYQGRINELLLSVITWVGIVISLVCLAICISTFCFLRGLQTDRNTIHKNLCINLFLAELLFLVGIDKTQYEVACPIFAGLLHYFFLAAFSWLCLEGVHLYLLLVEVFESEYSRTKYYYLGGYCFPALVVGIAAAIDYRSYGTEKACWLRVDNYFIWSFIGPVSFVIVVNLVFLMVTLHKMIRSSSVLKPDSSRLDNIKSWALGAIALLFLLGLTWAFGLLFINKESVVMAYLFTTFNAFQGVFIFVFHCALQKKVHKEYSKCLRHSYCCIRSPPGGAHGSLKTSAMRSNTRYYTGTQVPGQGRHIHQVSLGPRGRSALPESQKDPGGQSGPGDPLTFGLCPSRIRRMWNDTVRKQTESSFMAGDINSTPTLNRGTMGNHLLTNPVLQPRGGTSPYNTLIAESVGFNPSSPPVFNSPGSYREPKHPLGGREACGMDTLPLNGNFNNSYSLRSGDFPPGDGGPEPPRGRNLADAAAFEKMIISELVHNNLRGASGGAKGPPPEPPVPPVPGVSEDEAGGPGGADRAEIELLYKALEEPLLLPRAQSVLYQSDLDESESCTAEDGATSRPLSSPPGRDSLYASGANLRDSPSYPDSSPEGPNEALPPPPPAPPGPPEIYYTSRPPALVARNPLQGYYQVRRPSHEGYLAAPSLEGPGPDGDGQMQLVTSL
Test: cell aggregation assay

With NRX1β(-SS4) (ligand) the binding was “binds”.
